Measurements: the supplement of paper PMC8728848
The other results are listed elsewhere or left out.

Tests used:
Experiment in all cases: glycan array binding signal (z-score within array); higher = stronger binding
Conditions in all cases: glycan notation: IUPAC condensed, linker removed
[1] = target: Gal(b1-4)GlcNAc(b1-3)Gal(b1-4)GlcNAc(b1-2)Man(a1-3)[Gal(b1-4)GlcNAc(b1-3)Gal(b1-4)GlcNAc(b1-2)Man(a1-6)]Man(b1-4)GlcNAc(b1-4)[Fuc(a1-6)]GlcNAc
How it was run: (§1)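 The binding signal is a Z-score computed within each array. Data were drawn from 3228 arrays in the Consortium for Functional Glycomics database, restricted to those with a known protein sequence. Scores were averaged over arrays of the same protein sequence at different concentrations or buffers, and over linkers, and negative values can be taken as non-binding.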

[2] = target: Gal(b1-4)GlcNAc(b1-3)Gal(b1-4)GlcNAc(b1-2)[Gal(b1-4)GlcNAc(b1-3)Gal(b1-4)GlcNAc(b1-6)]Man(a1-6)[Gal(b1-4)GlcNAc(b1-3)Gal(b1-4)GlcNAc(b1-2)Man(a1-3)]Man(b1-4)GlcNAc(b1-4)GlcNAc
How it was run: as §1

[3] = target: Gal(b1-4)GlcNAc(b1-3)Gal(b1-4)GlcNAc(b1-2)[Gal(b1-4)GlcNAc(b1-3)Gal(b1-4)GlcNAc(b1-6)]Man(a1-6)[Gal(b1-4)GlcNAc(b1-3)Gal(b1-4)GlcNAc(b1-2)Man(a1-3)]Man(b1-4)GlcNAc(b1-4)[Fuc(a1-6)]GlcNAc
How it was run: as §1

[4] = target: Gal(b1-4)GlcNAc(b1-3)Gal(b1-4)GlcNAc(b1-3)Gal(b1-4)GlcNAc
How it was run: as §1

[5] = target: Gal(b1-4)GlcNAc(b1-3)Gal(b1-4)GlcNAc(b1-3)Gal(b1-4)GlcNAc(b1-2)Man(a1-3)[Gal(b1-4)GlcNAc(b1-3)Gal(b1-4)GlcNAc(b1-3)Gal(b1-4)GlcNAc(b1-2)Man(a1-6)]Man(b1-4)GlcNAc(b1-4)GlcNAc
How it was run: as §1

[6] = target: Gal(b1-4)GlcNAc(b1-3)Gal(b1-4)GlcNAc(b1-3)Gal(b1-4)GlcNAc(b1-2)Man(a1-3)[Gal(b1-4)GlcNAc(b1-3)Gal(b1-4)GlcNAc(b1-3)Gal(b1-4)GlcNAc(b1-2)Man(a1-6)]Man(b1-4)GlcNAc(b1-4)[Fuc(a1-6)]GlcNAc
How it was run: as §1

[7] = target: Gal(b1-4)GlcNAc(b1-3)Gal(b1-4)GlcNAc(b1-3)Gal(b1-4)GlcNAc(b1-2)[Gal(b1-4)GlcNAc(b1-3)Gal(b1-4)GlcNAc(b1-3)Gal(b1-4)GlcNAc(b1-6)]Man(a1-6)[Gal(b1-4)GlcNAc(b1-3)Gal(b1-4)GlcNAc(b1-3)Gal(b1-4)GlcNAc(b1-2)Man(a1-3)]Man(b1-4)GlcNAc(b1-4)[Fuc(a1-6)]GlcNAc
How it was run: as §1

[8] = target: Gal(b1-4)GlcNAc(b1-3)Gal(b1-4)GlcNAc(b1-3)Gal(b1-4)GlcNAc(b1-3)Gal(b1-4)GlcNAc(b1-2)Man(a1-3)[Gal(b1-4)GlcNAc(b1-3)Gal(b1-4)GlcNAc(b1-3)Gal(b1-4)GlcNAc(b1-3)Gal(b1-4)GlcNAc(b1-2)Man(a1-6)]Man(b1-4)GlcNAc(b1-4)GlcNAc
How it was run: as §1

[9] = target: Gal(b1-4)GlcNAc(b1-3)Gal(b1-4)GlcNAc(b1-3)Gal(b1-4)GlcNAc(b1-3)Gal(b1-4)GlcNAc(b1-2)Man(a1-3)[Gal(b1-4)GlcNAc(b1-3)Gal(b1-4)GlcNAc(b1-3)Gal(b1-4)GlcNAc(b1-3)Gal(b1-4)GlcNAc(b1-2)Man(a1-6)]Man(b1-4)GlcNAc(b1-4)[Fuc(a1-6)]GlcNAc
How it was run: as §1

[10] = target: Gal(b1-4)GlcNAc(b1-3)Gal(b1-4)GlcNAc(b1-3)Gal(b1-4)GlcNAc(b1-3)Gal(b1-4)GlcNAc(b1-2)[Gal(b1-4)GlcNAc(b1-3)Gal(b1-4)GlcNAc(b1-3)Gal(b1-4)GlcNAc(b1-3)Gal(b1-4)GlcNAc(b1-6)]Man(a1-6)[Gal(b1-4)GlcNAc(b1-3)Gal(b1-4)GlcNAc(b1-3)Gal(b1-4)GlcNAc(b1-3)Gal(b1-4)GlcNAc(b1-2)Man(a1-3)]Man(b1-4)GlcNAc(b1-4)[Fuc(a1-6)]GlcNAc
How it was run: as §1

[11] = target: Gal(b1-4)GlcNAc(b1-3)Gal(b1-4)GlcNAc(b1-3)Gal(b1-4)GlcNAc(b1-3)Gal(b1-4)GlcNAc(b1-3)Gal(b1-4)GlcNAc(b1-2)Man(a1-3)[Gal(b1-4)GlcNAc(b1-3)Gal(b1-4)GlcNAc(b1-3)Gal(b1-4)GlcNAc(b1-3)Gal(b1-4)GlcNAc(b1-3)Gal(b1-4)GlcNAc(b1-2)Man(a1-6)]Man(b1-4)GlcNAc(b1-4)GlcNAc
How it was run: as §1

[12] = target: Gal(b1-4)GlcNAc(b1-3)Gal(b1-4)GlcNAc(b1-3)Gal(b1-4)GlcNAc(b1-3)Gal(b1-4)GlcNAc(b1-3)Gal(b1-4)GlcNAc(b1-2)Man(a1-3)[Gal(b1-4)GlcNAc(b1-3)Gal(b1-4)GlcNAc(b1-3)Gal(b1-4)GlcNAc(b1-3)Gal(b1-4)GlcNAc(b1-3)Gal(b1-4)GlcNAc(b1-2)Man(a1-6)]Man(b1-4)GlcNAc(b1-4)[Fuc(a1-6)]GlcNAc
How it was run: as §1

[13] = target: Gal(b1-4)GlcNAc(b1-3)Gal(b1-4)GlcNAc(b1-3)Gal(b1-4)GlcNAc(b1-3)Gal(b1-4)GlcNAc(b1-3)Gal(b1-4)GlcNAc(b1-2)[Gal(b1-4)GlcNAc(b1-3)Gal(b1-4)GlcNAc(b1-3)Gal(b1-4)GlcNAc(b1-3)Gal(b1-4)GlcNAc(b1-3)Gal(b1-4)GlcNAc(b1-6)]Man(a1-6)[Gal(b1-4)GlcNAc(b1-3)Gal(b1-4)GlcNAc(b1-3)Gal(b1-4)GlcNAc(b1-3)Gal(b1-4)GlcNAc(b1-3)Gal(b1-4)GlcNAc(b1-2)Man(a1-3)]Man(b1-4)GlcNAc(b1-4)[Fuc(a1-6)]GlcNAc
How it was run: as §1

[14] = target: Gal(b1-4)GlcNAc(b1-3)Gal(b1-4)GlcNAc(b1-3)Gal(b1-4)GlcNAc(b1-3)Gal(b1-4)GlcNAc(b1-3)Gal(b1-4)GlcNAc(b1-3)Gal(b1-4)GlcNAc(b1-2)Man(a1-3)[Gal(b1-4)GlcNAc(b1-3)Gal(b1-4)GlcNAc(b1-3)Gal(b1-4)GlcNAc(b1-3)Gal(b1-4)GlcNAc(b1-3)Gal(b1-4)GlcNAc(b1-3)Gal(b1-4)GlcNAc(b1-2)Man(a1-6)]Man(b1-4)GlcNAc(b1-4)GlcNAc
How it was run: as §1

[15] = target: Gal(b1-4)GlcNAc(b1-3)Gal(b1-4)GlcNAc(b1-3)GalNAc
How it was run: as §1

[16] = target: Gal(b1-4)GlcNAc(b1-3)Gal(b1-4)GlcNAc(b1-3)[Gal(b1-4)GlcNAc(b1-3)Gal(b1-4)GlcNAc(b1-6)]GalNAc
How it was run: as §1

[17] = target: Gal(b1-4)GlcNAc(b1-3)Gal(b1-4)GlcNAc(b1-6)[Gal(b1-3)]GalNAc
How it was run: as §1

[18] = target: Gal(b1-4)GlcNAc(b1-3)Gal(b1-4)[Fuc(a1-3)]GlcNAc(b1-3)Gal(b1-4)[Fuc(a1-3)]GlcNAc
How it was run: as §1

B1: ERGIC1-EDTA (Homo sapiens), Q969X5 (protein)
chain: MKFLVNVALVFMVVYISYIYAAAHMHHHHHHDYDIPTTENLYFQGSEVVNELYVDDPDKDSGGKIDVSLNISLPNLHCELVGLDIQDEMGRHEVGHIDNSMKIPLNNGAGCRFEGQFSINKVPGNFHVSTHSATAQPQNPDMTHVIHKLSFGDTLQVQNIHGAFNALGGADRLTSNPLASHDYILKIVPTVYEDKSGKQRYSYQYTVANKEYVAYSHTGRIIPAIWFRYDLSPITVKYTE
In the case of B1, the “glycan array binding signal (z-score)” value [1] is reported as 2.13, the “glycan array binding signal (z-score)” value [2] is reported as 0.628 and the “glycan array binding signal (z-score)” value [3] is reported as 1.67. For the same binder, the “glycan array binding signal (z-score)” value [4] was -0.304, the “glycan array binding signal (z-score)” value [5] was 1.1 and the “glycan array binding signal (z-score)” value [6] was 0.704. The “glycan array binding signal (z-score)” value [7] was 1.27, the “glycan array binding signal (z-score)” value [8] was -0.467 and the “glycan array binding signal (z-score)” value [9] was 2.23. For the same binder, the “glycan array binding signal (z-score)” value [10] was 1.76, the “glycan array binding signal (z-score)” value [11] was -0.16 and the “glycan array binding signal (z-score)” value [12] was 0.448. The “glycan array binding signal (z-score)” value [13] was 1.58, the “glycan array binding signal (z-score)” value [14] was -0.209 and the “glycan array binding signal (z-score)” value [15] was 0.855. For the same binder, the “glycan array binding signal (z-score)” value [16] was 0.58, the “glycan array binding signal (z-score)” value [17] was 0.919 and the “glycan array binding signal (z-score)” value [18] was -0.36.
